Assay results reported in patent US20220251562.

Chains of the proteins cited; added tags and fusions are not shown. Chains listed by the source or under a name are the forms on record and can include a tag or linker.
CD3 epsilon/gamma heterodimer (Homo sapiens), one chain, as listed by the source, chain 2 of 2: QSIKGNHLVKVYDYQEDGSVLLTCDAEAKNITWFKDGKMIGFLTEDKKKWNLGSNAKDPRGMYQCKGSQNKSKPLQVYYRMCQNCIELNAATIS
CD3 epsilon/gamma heterodimer (Homo sapiens), one chain, as listed by the source, chain 1 of 2: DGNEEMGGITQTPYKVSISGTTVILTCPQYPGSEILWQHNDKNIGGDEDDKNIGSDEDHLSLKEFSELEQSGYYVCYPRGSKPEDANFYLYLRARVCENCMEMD
CD3 complex on EL4 cells (Mus musculus), one chain, as listed by the source, chain 3 of 3: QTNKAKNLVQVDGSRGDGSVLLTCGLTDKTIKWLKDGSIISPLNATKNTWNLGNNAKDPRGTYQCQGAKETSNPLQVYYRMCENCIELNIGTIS
CD3 complex on EL4 cells (Mus musculus), one chain, as listed by the source, chain 1 of 3: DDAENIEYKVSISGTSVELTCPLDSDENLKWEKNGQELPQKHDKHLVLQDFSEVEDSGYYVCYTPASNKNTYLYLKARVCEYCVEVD
CD3 complex on EL4 cells (Mus musculus), one chain, as listed by the source, chain 2 of 3: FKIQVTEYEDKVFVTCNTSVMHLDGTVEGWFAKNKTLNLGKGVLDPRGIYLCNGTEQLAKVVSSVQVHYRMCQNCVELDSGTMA

Columns and labels:
[1] = test system: IgG1 Fc (counter target) (Homo sapiens); assay: SPR; conditions: 2'-F pyrimidines; NA, DPBS; purified recombinant protein; protein details: AcroBiosystems; label: 5'-biotin-TEG
[2] = test system: CD3 epsilon/delta heterodimer (Mus musculus); assay: SPR; conditions: 2'-F pyrimidines; kinetic, DPBS; purified recombinant protein; protein details: Sino Biological; label: 5'-biotin-TEG
[3] = test system: CD3 epsilon/delta heterodimer (Homo sapiens); assay: SPR; conditions: 2'-F pyrimidines; kinetic, DPBS; purified recombinant protein; protein details: C-terminal human IgG1 Fc fusion, AcroBiosystems; label: 5'-biotin-TEG
[4] = test system: CD3 epsilon/gamma heterodimer (Homo sapiens); assay: SPR; conditions: 2'-F pyrimidines; kinetic, DPBS; printed ARACD3-370006; purified recombinant protein; protein details: C-terminal human IgG1 Fc fusion, AcroBiosystems; label: 5'-biotin-TEG
[5] = test system: CD3 complex on EL4 cells (Mus musculus); assay: flow cytometry; conditions: 2'-F pyrimidines; dose-dependent staining 3-300 nM, DPBS; protein on the cell surface; protein details: EL4 ATCC CRL-2638; label: 5'-biotin-TEG
[6] = test system: CD3 complex on Jurkat cells (Homo sapiens); assay: flow cytometry; conditions: 2'-F pyrimidines; protein on the cell surface; protein details: Jurkat ATCC TIB-152; label: 5'-biotin-TEG

UAUAGACUUUAAUGUCUCAUUUUCGCAGCGAUUCUUGUUUAUUUAACAUA [ARACD3-3700006]
binding result [1]: no binding | Kd [2]: 24.2 nM | Kd [3]: 75 nM | Kd [4]: 21 nM | binding result [5]: binds | binding result [6]: binds

The exact form of at least one protein or probe is not confirmed. For part of these data: A negative result means that nothing was seen under these conditions. For part of these data: At least one result comes from cells or an extract, where the contact may be indirect.
